{"source": "paper PMC12019622", "about": "(World Journal of Experimental Medicine, 2025)", "origin": "cited, not measured here", "tested_on": "blood-brain barrier (BBB)", "settings": "cited from earlier work", "data": [{"smiles": "COc1cc2c(cc1OC)C(=O)C(CC1CCN(Cc3ccccc3)CC1)C2", "note": "(stereo not shown) [donepezil]", "values": [{"measurement": "permeability across the blood-brain barrier (BBB)", "result": 12, "unit": "×10⁻⁶ cm/s"}]}]}
